Source: publication PMC7721701
No constants are given. Whether binding was seen depends on the method and setting. Binding seen in cells or lysates may run through a third protein. These calls come from enrichment with a bait or labelling near it, and not all partners need be listed. For some assays here: No binding means not detected with the bait.

By UniProt entry, the sequences of proteins in these tests, tags left out. Residues count along the entry.
UniProt P35222: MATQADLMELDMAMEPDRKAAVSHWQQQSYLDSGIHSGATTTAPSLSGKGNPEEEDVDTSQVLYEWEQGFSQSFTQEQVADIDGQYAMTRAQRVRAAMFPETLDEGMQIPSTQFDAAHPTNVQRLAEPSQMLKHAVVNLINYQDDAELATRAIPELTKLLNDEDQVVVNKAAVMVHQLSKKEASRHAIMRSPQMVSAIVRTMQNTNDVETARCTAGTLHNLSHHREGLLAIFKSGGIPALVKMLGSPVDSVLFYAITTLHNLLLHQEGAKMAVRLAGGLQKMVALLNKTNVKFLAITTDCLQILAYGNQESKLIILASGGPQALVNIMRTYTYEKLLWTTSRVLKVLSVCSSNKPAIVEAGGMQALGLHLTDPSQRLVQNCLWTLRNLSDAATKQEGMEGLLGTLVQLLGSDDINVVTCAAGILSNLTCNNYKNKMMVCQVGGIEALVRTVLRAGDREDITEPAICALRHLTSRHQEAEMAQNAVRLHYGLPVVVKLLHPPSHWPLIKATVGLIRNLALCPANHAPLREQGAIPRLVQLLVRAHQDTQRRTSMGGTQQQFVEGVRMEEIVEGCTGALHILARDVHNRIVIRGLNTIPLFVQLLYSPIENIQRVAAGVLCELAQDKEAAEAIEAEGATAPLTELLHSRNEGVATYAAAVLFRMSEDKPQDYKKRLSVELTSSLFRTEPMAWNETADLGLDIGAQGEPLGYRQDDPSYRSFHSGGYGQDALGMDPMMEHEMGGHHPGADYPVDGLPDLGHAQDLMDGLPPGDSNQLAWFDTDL
UniProt P48431: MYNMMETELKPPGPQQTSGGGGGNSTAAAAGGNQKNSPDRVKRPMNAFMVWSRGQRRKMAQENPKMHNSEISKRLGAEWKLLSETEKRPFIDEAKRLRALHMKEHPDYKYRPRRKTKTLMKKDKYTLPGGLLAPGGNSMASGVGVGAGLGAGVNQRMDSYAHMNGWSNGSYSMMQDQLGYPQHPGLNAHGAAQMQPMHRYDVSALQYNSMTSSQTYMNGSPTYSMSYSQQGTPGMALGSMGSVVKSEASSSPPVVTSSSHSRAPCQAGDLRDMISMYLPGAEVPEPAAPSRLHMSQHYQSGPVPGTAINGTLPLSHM
UniProt P24821, residues 23-2201: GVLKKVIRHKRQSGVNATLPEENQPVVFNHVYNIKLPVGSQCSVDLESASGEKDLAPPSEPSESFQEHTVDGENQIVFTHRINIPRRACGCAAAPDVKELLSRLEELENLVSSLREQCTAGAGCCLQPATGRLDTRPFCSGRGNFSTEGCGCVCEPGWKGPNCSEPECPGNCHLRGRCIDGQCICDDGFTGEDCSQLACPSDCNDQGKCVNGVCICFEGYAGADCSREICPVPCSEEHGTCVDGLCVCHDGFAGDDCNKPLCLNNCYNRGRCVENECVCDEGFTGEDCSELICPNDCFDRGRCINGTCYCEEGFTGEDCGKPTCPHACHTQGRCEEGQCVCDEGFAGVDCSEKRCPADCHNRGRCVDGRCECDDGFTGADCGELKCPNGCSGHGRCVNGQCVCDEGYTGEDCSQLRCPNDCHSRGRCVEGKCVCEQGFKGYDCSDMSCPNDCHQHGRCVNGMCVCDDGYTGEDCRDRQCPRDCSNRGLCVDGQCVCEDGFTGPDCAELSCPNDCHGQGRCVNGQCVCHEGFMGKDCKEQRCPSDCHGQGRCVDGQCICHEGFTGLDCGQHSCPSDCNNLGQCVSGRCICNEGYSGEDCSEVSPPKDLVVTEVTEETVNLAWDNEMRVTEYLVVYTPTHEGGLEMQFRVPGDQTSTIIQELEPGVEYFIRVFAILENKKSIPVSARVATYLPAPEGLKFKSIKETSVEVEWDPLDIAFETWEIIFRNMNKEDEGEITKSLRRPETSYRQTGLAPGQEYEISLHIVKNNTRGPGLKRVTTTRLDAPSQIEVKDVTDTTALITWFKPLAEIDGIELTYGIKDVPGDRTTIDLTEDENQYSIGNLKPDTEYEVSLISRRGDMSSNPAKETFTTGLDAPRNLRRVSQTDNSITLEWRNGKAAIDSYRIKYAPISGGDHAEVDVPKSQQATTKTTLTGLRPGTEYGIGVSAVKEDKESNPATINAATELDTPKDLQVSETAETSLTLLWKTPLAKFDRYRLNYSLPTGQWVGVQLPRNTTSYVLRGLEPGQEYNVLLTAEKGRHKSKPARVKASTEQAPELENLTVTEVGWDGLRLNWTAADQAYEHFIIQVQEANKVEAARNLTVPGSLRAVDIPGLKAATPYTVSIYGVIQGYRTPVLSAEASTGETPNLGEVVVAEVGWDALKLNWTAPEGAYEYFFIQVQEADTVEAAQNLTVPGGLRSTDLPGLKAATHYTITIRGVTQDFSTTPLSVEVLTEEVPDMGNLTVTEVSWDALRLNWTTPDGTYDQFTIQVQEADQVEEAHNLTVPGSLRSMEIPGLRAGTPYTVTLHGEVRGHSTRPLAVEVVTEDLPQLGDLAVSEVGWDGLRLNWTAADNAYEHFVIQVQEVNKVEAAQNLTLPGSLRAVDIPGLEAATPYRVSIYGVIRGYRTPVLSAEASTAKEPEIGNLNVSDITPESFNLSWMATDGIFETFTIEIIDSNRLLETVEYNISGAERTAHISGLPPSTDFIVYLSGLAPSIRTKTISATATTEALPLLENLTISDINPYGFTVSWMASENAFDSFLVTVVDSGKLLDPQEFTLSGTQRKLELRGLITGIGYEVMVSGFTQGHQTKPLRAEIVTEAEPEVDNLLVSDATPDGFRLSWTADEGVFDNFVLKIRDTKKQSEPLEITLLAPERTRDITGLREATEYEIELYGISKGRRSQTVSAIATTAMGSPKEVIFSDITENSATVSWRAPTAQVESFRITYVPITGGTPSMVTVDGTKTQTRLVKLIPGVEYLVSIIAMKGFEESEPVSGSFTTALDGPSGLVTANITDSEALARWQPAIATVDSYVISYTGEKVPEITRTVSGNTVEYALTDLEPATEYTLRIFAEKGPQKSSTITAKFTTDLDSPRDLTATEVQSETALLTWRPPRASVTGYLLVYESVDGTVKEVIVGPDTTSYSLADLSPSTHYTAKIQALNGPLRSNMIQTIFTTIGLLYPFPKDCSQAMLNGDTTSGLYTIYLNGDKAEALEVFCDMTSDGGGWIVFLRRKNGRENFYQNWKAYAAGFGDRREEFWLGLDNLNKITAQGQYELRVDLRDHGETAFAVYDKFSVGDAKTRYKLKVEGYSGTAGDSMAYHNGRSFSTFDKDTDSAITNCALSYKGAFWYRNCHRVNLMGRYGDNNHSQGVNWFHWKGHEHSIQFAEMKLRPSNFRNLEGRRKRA
UniProt P17948, residues 27-1338: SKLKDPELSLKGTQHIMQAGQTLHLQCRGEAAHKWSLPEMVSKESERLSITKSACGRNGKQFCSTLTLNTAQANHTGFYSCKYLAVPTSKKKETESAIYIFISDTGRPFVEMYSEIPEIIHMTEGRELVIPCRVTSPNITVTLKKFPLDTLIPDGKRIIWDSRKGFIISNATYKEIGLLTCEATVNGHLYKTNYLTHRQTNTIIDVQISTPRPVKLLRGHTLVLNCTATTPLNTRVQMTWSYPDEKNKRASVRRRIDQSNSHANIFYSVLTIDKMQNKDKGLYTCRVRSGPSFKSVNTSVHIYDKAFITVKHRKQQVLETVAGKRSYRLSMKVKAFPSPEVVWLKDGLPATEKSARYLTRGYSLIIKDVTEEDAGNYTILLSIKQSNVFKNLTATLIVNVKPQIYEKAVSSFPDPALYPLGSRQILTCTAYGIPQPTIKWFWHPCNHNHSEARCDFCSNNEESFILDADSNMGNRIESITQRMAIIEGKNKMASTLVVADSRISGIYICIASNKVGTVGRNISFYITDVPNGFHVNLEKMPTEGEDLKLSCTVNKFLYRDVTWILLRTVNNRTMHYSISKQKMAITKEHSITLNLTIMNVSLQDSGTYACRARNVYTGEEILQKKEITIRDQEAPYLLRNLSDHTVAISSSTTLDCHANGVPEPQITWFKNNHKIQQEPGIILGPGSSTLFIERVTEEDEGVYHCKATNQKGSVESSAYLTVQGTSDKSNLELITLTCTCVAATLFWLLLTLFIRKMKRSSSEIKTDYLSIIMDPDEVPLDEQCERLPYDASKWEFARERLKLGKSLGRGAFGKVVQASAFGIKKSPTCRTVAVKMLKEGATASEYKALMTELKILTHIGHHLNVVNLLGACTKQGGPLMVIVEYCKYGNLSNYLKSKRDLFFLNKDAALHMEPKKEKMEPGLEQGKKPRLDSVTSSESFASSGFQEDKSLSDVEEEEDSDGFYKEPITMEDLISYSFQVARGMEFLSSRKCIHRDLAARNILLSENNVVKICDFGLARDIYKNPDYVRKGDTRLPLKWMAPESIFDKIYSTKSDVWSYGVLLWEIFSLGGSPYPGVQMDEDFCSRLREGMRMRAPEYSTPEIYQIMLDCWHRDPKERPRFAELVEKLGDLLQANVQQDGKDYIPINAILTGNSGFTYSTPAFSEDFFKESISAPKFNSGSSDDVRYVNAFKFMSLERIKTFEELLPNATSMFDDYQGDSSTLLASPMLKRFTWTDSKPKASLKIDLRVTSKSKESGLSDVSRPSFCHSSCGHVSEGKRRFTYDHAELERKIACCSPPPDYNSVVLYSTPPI

Columns and labels:
[1] = molecular target: β-catenin (human (endogenous in corneal epithelium)) (UniProt P35222); assay: affinity purification with mass spectrometry; endogenous β-catenin co-IP from pooled mild KC corneal epithelium lysates (RIPA buffer); SDS-PAGE, in-gel trypsin digestion, MALDI-TOF, Mascot; proteins found in the IgG control subtracted
[2] = molecular target: β-catenin (human (endogenous in corneal epithelium)) (UniProt P35222); assay: affinity purification with mass spectrometry; endogenous β-catenin co-IP from pooled control corneal epithelium lysates (RIPA buffer); SDS-PAGE, in-gel trypsin digestion, MALDI-TOF, Mascot; proteins found in the IgG control subtracted

Molecule | binding [1] | binding [2]
SOX-2 (from UniProt P48431 1-317) | no binding (only in mild KC epithelium) | binds
Tenascin C (from UniProt P24821 23-2201) | binds | binds
AH receptor-interacting protein (protein, UniProt O00170 1-330) MADIIARLREDGIQKRVIQEGRGELPDFQDGTKATFHYRTLHSDDEGTVLDDSRARGKPMELIIGKKFKLPVWETIVCTMREGEIAQFLCDIKHVVLYPLVAKSLRNIAVGKDPLEGQRHCCGVAQMREHSSLGHADLDALQQNPQPLIFHMEMLKVESPGTYQQDPWAMTDEEKAKAVPLIHQEGNRLYREGHVKEAAAKYYDAIACLKNLQMKEQPGSPEWIQLDQQITPLLLNYCQCKLVVEEYYEVLDHCSSILNKYDDNVKAYFKRGKAHAAVWNAQEAQADFAKVLELDPALAPVVSRELRALEARIRQKDEEDKARFRGIFSH | – | binds

Second part, the molecule after the results:

binding [1] | binding [2] | Molecule
no binding (only in mild KC epithelium) | binds | Vascular Endothelial growth factor receptor 1 (from UniProt P17948 27-1338)
– | binds | Tetkin4 (protein, UniProt Q8WW24 1-435) MAQTVPPCELPCKEYDVARNTGAYTSSGLATASFRTSKYLLEEWFQNCYARYHQAFADRDQSERQRHESQQLATETQALAQRTQQDSTRTVGERLQDTHSWKSELQREMEALAAETNLLLAQKQRLERALDATEVPFSITTDNLQCRERREHPNLVRDHVETELLKEAELIRNIQELLKRTIMQAVSQIRLNREHKETCEMDWSDKMEAYNIDETCGRHHSQSTEVQAHPYSTTFQESASTPETRAKFTQDNLCRAQRERLASANLRVLVDCILRDTSEDLRLQCDAVNLAFGRRCEELEDARYKLHHHLHKTLREITDQEHNVAALKQAIKDKEAPLHVAQTRLYLRSHRPNMELCRDAAQFRLLSEVEELNMSLTALREKLLEAEQSLRNLEDIHMSLEKDIAAMTNSLFIDRQKCMAHRTRYPTILQLAGYQ
